Data taken from the supplement of paper PMC10849652.
The list shows a part of the results.

Protein sequences, listed by entry. Tags and fused reporters are not part of them. Lines headed by an entry give the natural chain unless they say otherwise; changes in a name come on top.
UniProt P55210: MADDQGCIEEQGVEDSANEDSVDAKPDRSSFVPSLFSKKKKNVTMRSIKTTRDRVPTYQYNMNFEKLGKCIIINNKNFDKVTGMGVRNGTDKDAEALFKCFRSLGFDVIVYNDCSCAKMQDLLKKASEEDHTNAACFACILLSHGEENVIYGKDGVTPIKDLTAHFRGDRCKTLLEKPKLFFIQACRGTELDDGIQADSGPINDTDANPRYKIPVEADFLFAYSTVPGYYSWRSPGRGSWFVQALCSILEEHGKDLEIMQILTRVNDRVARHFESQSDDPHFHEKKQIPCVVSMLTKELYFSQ
UniProt Q9BUN5: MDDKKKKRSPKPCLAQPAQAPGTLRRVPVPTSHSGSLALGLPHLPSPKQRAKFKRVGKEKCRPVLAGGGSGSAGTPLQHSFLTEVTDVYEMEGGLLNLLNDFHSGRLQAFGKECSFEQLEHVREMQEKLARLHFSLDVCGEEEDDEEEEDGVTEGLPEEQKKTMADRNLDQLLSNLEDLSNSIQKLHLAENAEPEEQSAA
UniProt P0C221: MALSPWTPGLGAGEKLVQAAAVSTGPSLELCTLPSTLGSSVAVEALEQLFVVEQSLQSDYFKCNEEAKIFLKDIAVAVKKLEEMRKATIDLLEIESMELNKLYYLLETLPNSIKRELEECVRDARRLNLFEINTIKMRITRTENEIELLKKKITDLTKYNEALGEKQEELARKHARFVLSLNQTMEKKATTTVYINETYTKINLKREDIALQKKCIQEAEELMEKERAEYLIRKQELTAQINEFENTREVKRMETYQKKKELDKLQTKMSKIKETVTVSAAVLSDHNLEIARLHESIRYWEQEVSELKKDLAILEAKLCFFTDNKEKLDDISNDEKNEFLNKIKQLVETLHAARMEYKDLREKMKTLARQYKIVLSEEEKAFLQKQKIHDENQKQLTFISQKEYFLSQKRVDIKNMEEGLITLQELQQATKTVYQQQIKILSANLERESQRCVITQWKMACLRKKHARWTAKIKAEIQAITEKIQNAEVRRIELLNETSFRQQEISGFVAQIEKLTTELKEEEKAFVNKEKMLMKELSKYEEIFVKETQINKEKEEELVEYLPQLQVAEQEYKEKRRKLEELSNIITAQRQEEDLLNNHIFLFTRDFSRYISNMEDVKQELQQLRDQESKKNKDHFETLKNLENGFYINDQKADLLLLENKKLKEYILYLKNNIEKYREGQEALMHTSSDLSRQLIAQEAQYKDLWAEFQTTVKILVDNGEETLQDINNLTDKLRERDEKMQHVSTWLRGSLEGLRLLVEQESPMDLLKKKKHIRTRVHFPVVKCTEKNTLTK
UniProt P15529: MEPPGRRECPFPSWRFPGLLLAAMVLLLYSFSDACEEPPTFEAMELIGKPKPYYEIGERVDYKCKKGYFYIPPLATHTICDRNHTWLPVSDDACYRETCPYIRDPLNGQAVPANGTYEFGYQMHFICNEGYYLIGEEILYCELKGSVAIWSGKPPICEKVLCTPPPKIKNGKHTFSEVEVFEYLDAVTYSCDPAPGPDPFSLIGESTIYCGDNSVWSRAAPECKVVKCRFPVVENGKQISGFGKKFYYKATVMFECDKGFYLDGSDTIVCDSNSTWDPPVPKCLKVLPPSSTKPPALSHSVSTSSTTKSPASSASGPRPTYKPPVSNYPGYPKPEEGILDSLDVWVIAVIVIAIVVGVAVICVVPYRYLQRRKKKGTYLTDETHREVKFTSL
UniProt Q8TCZ2: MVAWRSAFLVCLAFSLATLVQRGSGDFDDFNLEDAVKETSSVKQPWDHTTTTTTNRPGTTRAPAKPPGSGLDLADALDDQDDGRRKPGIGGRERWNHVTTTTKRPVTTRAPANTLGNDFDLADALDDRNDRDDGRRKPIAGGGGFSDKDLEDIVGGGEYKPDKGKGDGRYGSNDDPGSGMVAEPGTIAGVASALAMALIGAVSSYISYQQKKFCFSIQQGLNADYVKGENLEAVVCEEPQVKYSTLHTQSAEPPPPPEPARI
UniProt Q96S94: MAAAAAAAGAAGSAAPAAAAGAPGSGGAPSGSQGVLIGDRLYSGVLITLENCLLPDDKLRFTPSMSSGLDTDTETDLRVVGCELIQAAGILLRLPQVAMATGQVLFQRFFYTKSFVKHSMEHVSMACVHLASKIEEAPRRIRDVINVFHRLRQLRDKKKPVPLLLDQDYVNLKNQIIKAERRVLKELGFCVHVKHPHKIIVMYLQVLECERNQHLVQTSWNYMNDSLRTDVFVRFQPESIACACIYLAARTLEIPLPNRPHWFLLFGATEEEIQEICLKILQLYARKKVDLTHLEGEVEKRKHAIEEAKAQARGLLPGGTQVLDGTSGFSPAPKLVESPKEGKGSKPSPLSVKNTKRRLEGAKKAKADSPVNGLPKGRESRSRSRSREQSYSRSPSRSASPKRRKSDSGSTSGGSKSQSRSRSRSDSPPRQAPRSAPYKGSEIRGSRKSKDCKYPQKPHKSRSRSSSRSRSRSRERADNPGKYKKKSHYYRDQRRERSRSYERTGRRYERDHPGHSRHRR
UniProt Q9UK58: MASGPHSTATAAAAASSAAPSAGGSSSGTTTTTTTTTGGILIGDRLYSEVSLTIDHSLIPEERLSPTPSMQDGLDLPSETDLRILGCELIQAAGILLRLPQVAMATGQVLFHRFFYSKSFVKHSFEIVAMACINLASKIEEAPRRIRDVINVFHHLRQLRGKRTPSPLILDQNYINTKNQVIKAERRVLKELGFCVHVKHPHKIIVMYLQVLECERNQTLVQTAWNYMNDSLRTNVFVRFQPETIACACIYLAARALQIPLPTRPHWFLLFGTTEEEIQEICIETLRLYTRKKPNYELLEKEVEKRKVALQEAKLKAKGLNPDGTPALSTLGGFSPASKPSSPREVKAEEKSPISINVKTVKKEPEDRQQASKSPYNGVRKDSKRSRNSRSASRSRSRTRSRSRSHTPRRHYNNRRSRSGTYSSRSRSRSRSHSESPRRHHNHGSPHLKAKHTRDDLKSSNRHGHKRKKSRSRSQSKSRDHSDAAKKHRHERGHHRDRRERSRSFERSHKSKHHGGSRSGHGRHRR
UniProt O43439: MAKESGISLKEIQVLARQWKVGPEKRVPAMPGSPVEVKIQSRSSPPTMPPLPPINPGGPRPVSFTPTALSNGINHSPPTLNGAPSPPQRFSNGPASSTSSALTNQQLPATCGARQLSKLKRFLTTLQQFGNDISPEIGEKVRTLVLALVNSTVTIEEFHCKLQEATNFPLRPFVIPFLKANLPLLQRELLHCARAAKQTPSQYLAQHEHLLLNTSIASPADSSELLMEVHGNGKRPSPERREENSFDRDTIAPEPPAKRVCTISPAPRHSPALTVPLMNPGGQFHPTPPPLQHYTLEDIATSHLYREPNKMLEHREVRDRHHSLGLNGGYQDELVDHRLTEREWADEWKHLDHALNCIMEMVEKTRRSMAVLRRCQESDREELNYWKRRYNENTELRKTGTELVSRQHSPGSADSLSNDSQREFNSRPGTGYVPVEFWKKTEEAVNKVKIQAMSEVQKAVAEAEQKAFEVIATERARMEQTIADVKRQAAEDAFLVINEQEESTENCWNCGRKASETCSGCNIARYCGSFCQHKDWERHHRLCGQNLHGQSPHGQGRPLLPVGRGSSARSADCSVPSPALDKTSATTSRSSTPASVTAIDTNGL
UniProt Q6YHK3: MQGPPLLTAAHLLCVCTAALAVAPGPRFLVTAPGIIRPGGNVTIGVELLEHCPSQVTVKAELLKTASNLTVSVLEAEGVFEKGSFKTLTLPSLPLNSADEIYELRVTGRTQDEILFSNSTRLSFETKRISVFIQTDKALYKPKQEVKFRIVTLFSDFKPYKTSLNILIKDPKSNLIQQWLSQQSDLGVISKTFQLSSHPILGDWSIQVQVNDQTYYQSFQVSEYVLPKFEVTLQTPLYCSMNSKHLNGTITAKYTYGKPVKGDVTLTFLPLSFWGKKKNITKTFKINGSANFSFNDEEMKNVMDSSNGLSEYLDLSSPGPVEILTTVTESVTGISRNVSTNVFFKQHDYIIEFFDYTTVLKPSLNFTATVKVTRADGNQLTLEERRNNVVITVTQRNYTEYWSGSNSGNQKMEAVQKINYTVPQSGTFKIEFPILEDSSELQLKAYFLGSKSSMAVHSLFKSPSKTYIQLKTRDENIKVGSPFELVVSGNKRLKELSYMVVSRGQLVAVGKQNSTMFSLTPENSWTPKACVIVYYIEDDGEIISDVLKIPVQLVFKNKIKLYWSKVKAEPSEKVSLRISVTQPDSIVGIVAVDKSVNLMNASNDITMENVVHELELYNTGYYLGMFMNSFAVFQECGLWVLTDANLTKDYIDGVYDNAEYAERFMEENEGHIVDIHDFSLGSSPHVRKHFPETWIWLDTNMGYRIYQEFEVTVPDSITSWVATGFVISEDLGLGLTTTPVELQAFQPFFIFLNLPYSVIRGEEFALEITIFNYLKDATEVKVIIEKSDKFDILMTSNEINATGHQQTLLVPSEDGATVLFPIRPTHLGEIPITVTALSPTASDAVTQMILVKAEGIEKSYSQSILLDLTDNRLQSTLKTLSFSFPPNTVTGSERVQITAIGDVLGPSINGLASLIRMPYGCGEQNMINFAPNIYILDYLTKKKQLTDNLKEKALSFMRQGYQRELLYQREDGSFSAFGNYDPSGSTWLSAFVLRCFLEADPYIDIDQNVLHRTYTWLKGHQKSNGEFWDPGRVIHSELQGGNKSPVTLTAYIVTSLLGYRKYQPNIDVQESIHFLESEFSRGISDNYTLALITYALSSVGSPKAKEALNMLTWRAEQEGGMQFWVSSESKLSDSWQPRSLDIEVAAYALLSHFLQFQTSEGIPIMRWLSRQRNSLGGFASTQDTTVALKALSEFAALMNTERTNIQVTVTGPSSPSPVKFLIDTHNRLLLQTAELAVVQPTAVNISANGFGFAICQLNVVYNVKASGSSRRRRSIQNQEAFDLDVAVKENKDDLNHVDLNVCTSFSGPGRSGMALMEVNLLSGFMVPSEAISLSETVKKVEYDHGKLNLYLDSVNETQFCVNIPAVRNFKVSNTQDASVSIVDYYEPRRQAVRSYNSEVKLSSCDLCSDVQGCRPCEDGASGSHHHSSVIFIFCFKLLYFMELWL
UniProt P30304: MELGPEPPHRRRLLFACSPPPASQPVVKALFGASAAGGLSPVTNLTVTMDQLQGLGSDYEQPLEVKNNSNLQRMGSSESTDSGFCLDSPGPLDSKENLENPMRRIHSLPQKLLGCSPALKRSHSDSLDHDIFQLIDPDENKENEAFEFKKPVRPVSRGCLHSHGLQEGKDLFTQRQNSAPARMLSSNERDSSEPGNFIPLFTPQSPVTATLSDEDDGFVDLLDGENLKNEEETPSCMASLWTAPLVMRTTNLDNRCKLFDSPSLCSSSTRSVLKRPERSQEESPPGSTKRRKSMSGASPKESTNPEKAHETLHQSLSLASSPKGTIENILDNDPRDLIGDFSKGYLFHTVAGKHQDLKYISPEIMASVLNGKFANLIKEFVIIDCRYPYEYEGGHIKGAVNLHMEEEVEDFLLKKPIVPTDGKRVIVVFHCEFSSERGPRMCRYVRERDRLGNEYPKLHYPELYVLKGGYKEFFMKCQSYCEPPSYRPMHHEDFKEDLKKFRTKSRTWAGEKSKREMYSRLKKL
UniProt Q15834: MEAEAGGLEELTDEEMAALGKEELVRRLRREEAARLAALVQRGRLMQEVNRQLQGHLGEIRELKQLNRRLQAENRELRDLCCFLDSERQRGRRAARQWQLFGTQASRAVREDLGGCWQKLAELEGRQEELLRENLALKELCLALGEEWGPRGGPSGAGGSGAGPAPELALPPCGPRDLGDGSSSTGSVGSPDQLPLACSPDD
UniProt O95273: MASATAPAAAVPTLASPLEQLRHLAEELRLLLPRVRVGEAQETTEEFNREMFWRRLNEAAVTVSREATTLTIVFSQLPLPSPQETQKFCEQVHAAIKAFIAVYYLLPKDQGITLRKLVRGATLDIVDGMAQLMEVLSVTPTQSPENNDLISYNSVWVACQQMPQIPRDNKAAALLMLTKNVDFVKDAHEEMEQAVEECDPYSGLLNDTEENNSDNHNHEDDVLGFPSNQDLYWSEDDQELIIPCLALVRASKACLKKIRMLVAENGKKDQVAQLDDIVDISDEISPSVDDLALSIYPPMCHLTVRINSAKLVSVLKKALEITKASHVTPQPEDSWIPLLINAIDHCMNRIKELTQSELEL
UniProt P20138, whole entry, looked up: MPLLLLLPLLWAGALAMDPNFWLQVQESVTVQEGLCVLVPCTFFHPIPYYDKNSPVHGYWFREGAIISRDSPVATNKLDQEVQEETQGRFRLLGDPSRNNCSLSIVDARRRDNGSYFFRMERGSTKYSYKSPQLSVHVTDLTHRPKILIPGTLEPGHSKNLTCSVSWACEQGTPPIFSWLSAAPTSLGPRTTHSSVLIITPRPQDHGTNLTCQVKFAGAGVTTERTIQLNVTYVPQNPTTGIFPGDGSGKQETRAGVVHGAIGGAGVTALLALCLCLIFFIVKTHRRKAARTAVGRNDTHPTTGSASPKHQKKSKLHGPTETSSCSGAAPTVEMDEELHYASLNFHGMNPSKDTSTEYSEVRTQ

Key:
Test in all cases: log2 fold change, soluble protein after heating vs DMSO (PISA); higher = thermal stabilisation; K562 cells, 10 uM, 30 min; active = over 0.2 and 3.5 SD of the protein, either way, in both replicates (recomputed)
gefitinib = compound: COc1cc2ncnc(Nc3ccc(F)c(Cl)c3)c2cc1OCCCN1CCOCC1 [gefitinib]
Procedure, shortened: (§1)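 K562 cells at 2×10^6 cells/mL were given 10 μM compound for 30 min. Aliquots then went through 3 min of heating across 48°C-58°C, were pooled, and were extracted in PBS with 0.5% NP-40 at 4°C, and the supernatant after 21,000xg for 90 min was quantified by TMTpro 16plex LC-MS/MS with channel sums equalised. Thermal stability relative to control samples, from duplicates, is given as log2 fold change.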

pictilisib = compound: CS(=O)(=O)N1CCN(Cc2cc3nc(-c4cccc5[nH]ncc45)nc(N4CCOCC4)c3s2)CC1 [pictilisib]
Procedure, shortened: as §1

filanesib = compound: CON(C)C(=O)N1N=C(c2cc(F)ccc2F)S[C@@]1(CCCN)c1ccccc1 [filanesib]
Procedure, shortened: as §1

zotarolimus = compound: CO[C@H]1C[C@@H]2CC[C@@H](C)[C@@](O)(O2)C(=O)C(=O)N2CCCC[C@H]2C(=O)O[C@H]([C@H](C)C[C@@H]2CC[C@H](n3cnnn3)[C@H](OC)C2)CC(=O)[C@H](C)/C=C(\C)[C@@H](O)[C@@H](OC)C(=O)[C@H](C)C[C@H](C)/C=C/C=C/C=C/1C [zotarolimus]
Procedure, shortened: as §1

idasanutlin = compound: COc1cc(C(=O)O)ccc1NC(=O)[C@@H]1N[C@@H](CC(C)(C)C)[C@](C#N)(c2ccc(Cl)cc2F)[C@H]1c1cccc(Cl)c1F [idasanutlin]
Procedure, shortened: as §1

alisertib = compound: COc1cc(Nc2ncc3c(n2)-c2ccc(Cl)cc2C(c2c(F)cccc2OC)=NC3)ccc1C(=O)O [alisertib]
Procedure, shortened: as §1

[1] = compound: COc1cccc2cc(-c3nc([C@H]4CC[C@H](C(=O)O)CC4)n4ncnc(N)c34)[nH]c12
Procedure, shortened: as §1

[2] = compound: COC1=CC=C(C=C1)CN2C=CC3=C2C=C(C=C3)C(=O)NO
Procedure, shortened: as §1

[3] = compound: COc1cc2nc(-c3cc(F)ccc3O)nc(N[C@@H]3CNC[C@H]3C(C)(C)O)c2cc1OC
Procedure, shortened: as §1

lapatinib = compound: CS(=O)(=O)CCNCc1ccc(-c2ccc3ncnc(Nc4ccc(OCc5cccc(F)c5)c(Cl)c4)c3c2)o1 [lapatinib]
Procedure, shortened: as §1

Measured: log2 fold change

CASP7 isoform 3 (UniProt P55210)
inactive: gefitinib 0.282 | pictilisib 0.234

CD84 (UniProt Q9UIB8)
inactive: filanesib -0.009 | zotarolimus -0.194 | idasanutlin -0.082

CCND2 (UniProt P30279)
inactive: zotarolimus 0.002

CD68 (UniProt P34810)
inactive: filanesib 0.05 | alisertib -0.126 | [1] -0.025

CBFB (UniProt Q13951)
inactive: zotarolimus -0.012 | idasanutlin -0.031 | alisertib -0.011 | gefitinib -0.109 | [1] 0.15

CASK (UniProt O14936)
inactive: [2] 0.046 | idasanutlin -0.031

CCND1 (UniProt P24385)
inactive: filanesib 0.079

CDC27 (UniProt G5EA36)
inactive: zotarolimus -0.019 | [3] -0.183 | lapatinib 0.178

CCDC28B (UniProt Q9BUN5)
inactive: filanesib 0.139 | idasanutlin 0.012 | alisertib 0.159 | [3] 0.166 | [1] 0.033 | lapatinib 0.008 | pictilisib 0.364

CCDC175 (UniProt P0C221)
inactive: [2] 0.06 | zotarolimus 0.155 | idasanutlin 0.022 | alisertib -0.017 | [3] 0.084 | gefitinib 0.03 | [1] 0.025 | lapatinib -0.045 | pictilisib 0.036

CD46 (UniProt P15529)
inactive: filanesib 0.103

CD99L2 isoform 5 (UniProt Q8TCZ2)
inactive: [2] 0.092 | zotarolimus 0.005 | alisertib -0.01 | [3] 0.196 | gefitinib 0.073 | [1] -0.041 | lapatinib -0.103 | pictilisib 0.121

CD82 (UniProt P27701)
inactive: filanesib -0.016 | alisertib -0.125 | gefitinib -0.218 | [1] 0.056 | pictilisib 0.18

Reprinted from the entries so far (2 entries):
CCDC175 (UniProt P0C221)
inactive: [2] 0.06 | zotarolimus 0.155 | idasanutlin 0.022 | alisertib -0.017 | [3] 0.084 | gefitinib 0.03 | [1] 0.025 | lapatinib -0.045 | pictilisib 0.036

CD46 (UniProt P15529)
inactive: filanesib 0.103

More records.

CCNL2 (UniProt Q96S94)
inactive: filanesib -0.421 | gefitinib 0.019

CCNL1 (UniProt Q9UK58)
inactive: alisertib 0.119 | [1] 0.167

CD44 (UniProt P16070)
inactive: filanesib 0.065 | zotarolimus 0.074 | idasanutlin -0.021 | [3] 0.143 | lapatinib -0.035

CBX8 (UniProt Q9HC52)
inactive: zotarolimus 0.265

CBFA2T2 isoform 4 (UniProt O43439)
inactive: pictilisib 0.037

CDC37 (UniProt K7EKQ2)
inactive: filanesib -0.077

CD109 (UniProt Q6YHK3)
inactive: pictilisib 0.201

CCDC102A (UniProt Q96A19)
inactive: zotarolimus -0.088 | idasanutlin 0.012 | [3] 0.008 | lapatinib 0.171 | pictilisib 0.302

CCNE1 (UniProt P24864)
inactive: idasanutlin -0.126 | [3] 0.128 | lapatinib 0.058 | pictilisib -0.192

CCNT2 (UniProt O60583)
inactive: filanesib 0.102 | idasanutlin 0.143 | alisertib 0.039 | [3] -0.291 | gefitinib 0.163 | [1] -0.131 | lapatinib 0.085 | pictilisib 0.121

CDC25A (UniProt P30304)
inactive: [2] -0.081 | filanesib -0.052 | alisertib 0.07 | gefitinib -0.023 | [1] 0.093

CCDC85B (UniProt Q15834)
inactive: filanesib 0.123 | zotarolimus 0.081 | idasanutlin -0.049 | alisertib 0.041 | [3] -0.064 | [1] -0.021 | lapatinib 0.172 | pictilisib -0.021

CD276 (UniProt Q5ZPR3)
inactive: [2] -0.27 | pictilisib 0.088

CCDC186 (UniProt Q7Z3E2)
inactive: filanesib 0.043 | alisertib -0.073 | gefitinib -0.06 | [1] -0.241 | pictilisib 0.125

CD164 (UniProt Q04900)
inactive: filanesib 0.192 | zotarolimus -0.202 | idasanutlin 0.125 | alisertib -0.074 | gefitinib -0.157 | [1] 0.1 | pictilisib -0.082

CCDC71L isoform 2 (UniProt Q8N9Z2)
inactive: filanesib 0.135 | zotarolimus 0.04

CCNDBP1 (UniProt O95273)
inactive: filanesib 0.016 | zotarolimus -0.102 | idasanutlin 0.063 | alisertib -0.012 | [1] 0.125 | pictilisib 0.009
active: gefitinib -0.33

CD80 (UniProt P33681)
inactive: filanesib 0.007 | zotarolimus 0.027 | idasanutlin 0.111 | alisertib 0.12 | [3] 0.027 | gefitinib -0.003 | [1] -0.187 | lapatinib 0.088 | pictilisib 0.038

CCND3 (UniProt P30281)
inactive: zotarolimus -0.035 | idasanutlin -0.036 | alisertib -0.043 | [3] -0.276 | [1] 0.012 | lapatinib 0.083 | pictilisib 0.03

CCDC82 (UniProt Q8N4S0)
inactive: [2] -0.356 | zotarolimus 0.013 | idasanutlin 0 | alisertib 0.034 | [3] -0.013 | gefitinib 0.052 | [1] -0.102 | lapatinib 0.043

CD33 (UniProt P20138)
inactive: filanesib 0.112 | [3] -0.159 | lapatinib 0.054 | pictilisib -0.079

CDC25C (UniProt P30307)
inactive: zotarolimus 0.025 | idasanutlin 0.093 | alisertib -0.06 | gefitinib 0.069 | [1] 0.136

CAV1 (UniProt F8WDM7)
inactive: zotarolimus -0.139

CD37 (UniProt P11049)
inactive: idasanutlin 0.023 | [3] 0.059 | gefitinib 0.089 | lapatinib -0.056 | pictilisib 0.084

CD2BP2 (UniProt O95400)
inactive: [2] -0.007 | [3] 0.106 | lapatinib 0.104

CCDC187, A0A1W2PQX5
inactive: idasanutlin -0.051 | gefitinib -0.312 | pictilisib 0.191

CCDC66 (UniProt A2RUB6)
inactive: alisertib 0.097 | gefitinib -0.213 | [1] -0.065 | pictilisib 0.019
